This passage reports step yield results from US10682419B2 (Onyx Therapeutics, Inc., priority 2012, dated 2020).

This series is described as follows: general procedure: solution-phase peptide synthesis; HBTU/HOBt/DIEA; DMTMM/NMM; HATU/DIPEA.

Substance “4-((4S,7S,10S,13S)-10-benzyl-7-isobutyl-15-methyl-13-((R)-2-methyloxirane-2-carbonyl)-2,5,8,11-tetraoxo-4-phenethyl-3,6,9,12-tetraazahexadecyl)-4-(4-(pent-4-ynoyloxy)benzyl)morpholin-4-ium Bromide (27)” showed a step yield (late stage modification step, bromide) of 21%. In turn, “(2S)—N—((S)-1-((2S,4S)-2-hydroxy-1-iodo-2,6-dimethyl-3-oxoheptan-4-ylcarbamoyl)-2-phenylethyl)-2-((S)-2-(2-morpholinoacetamido)-4-phenylbutanamido)-4-methylpentanamide” gave a step yield (late stage modification step) of 100%. Turning to “(4S,7S,10S,13S,15R)-10-Benzyl-15-hydroxy-7,13-diisobutyl-15-methyl-1-morpholino-2,5,8,11,14-pentaoxo-4-phenethyl-3,6,9,12-tetraazahexadecan-16-yl 2-fluoro-5-(prop-2-yn-1-ylcarbamoyl)benzenesulfonate (5)”, the step yield (coupling step) was found to be 32%. For the substance “(4S,7S,10S,13S,15R)-10-Benzyl-15-hydroxy-7,13-diisobutyl-15-methyl-1-morpholino-2,5,8,11,14-pentaoxo-4-phenethyl-3,6,9,12-tetraazahexadecan-16-yl methyl prop-2-yn-1-yl Phosphate”, where the note is “late stage modification step”, the step yield was 31%. On to “(4S,7S,10S,13S,15S)-10-Benzyl-16-iodo-7,13-diisobutyl-15-methyl-1-morpholino-2,5,8,11,14-pentaoxo-4-phenethyl-3,6,9,12-tetraazahexadecan-15-yl 4-oxo-4-(prop-2-yn-1-ylamino)butanoate (23)”, for which, under “late stage modification step”, the step yield was determined as 66%. On the same count and under the same terms, the result for “(4S,7S,10S,13S,15S)-10-benzyl-16-iodo-7,13-diisobutyl-15-methyl-1-morpholino-2,5,8,11,14-pentaoxo-4-phenethyl-3,6,9,12-tetraazahexadecan-15-yl 4-methoxybenzyl succinate” reads 90%. For the setting “coupling step”, “Benzyl 2-(4-((((4S,7S,10S,13S,15R)-10-benzyl-15-hydroxy-7,13-diisobutyl-15-methyl-1-morpholino-2,5,8,11,14-pentaoxo-4-phenethyl-3,6,9,12-tetraazahexadecan-16-yl)oxy)sulfonyl)-3,5-dimethylphenoxy)acetate (8)” registered a step yield of 82.8%.
